The source of these data is PMC5775985.

By UniProt entry, the sequences of proteins in these tests, tags left out.
UniProt P18901: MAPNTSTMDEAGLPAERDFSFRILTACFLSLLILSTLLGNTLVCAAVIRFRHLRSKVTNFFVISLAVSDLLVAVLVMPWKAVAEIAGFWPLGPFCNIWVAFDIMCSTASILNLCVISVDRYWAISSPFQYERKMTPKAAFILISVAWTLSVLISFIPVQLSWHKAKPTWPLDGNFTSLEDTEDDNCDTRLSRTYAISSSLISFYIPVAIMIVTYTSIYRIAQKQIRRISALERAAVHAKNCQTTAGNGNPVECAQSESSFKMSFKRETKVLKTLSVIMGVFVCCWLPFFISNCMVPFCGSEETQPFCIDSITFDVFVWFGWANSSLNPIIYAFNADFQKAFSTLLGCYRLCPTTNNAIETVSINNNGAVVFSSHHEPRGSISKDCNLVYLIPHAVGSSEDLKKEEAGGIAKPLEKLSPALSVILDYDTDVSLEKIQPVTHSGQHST
UniProt P29994: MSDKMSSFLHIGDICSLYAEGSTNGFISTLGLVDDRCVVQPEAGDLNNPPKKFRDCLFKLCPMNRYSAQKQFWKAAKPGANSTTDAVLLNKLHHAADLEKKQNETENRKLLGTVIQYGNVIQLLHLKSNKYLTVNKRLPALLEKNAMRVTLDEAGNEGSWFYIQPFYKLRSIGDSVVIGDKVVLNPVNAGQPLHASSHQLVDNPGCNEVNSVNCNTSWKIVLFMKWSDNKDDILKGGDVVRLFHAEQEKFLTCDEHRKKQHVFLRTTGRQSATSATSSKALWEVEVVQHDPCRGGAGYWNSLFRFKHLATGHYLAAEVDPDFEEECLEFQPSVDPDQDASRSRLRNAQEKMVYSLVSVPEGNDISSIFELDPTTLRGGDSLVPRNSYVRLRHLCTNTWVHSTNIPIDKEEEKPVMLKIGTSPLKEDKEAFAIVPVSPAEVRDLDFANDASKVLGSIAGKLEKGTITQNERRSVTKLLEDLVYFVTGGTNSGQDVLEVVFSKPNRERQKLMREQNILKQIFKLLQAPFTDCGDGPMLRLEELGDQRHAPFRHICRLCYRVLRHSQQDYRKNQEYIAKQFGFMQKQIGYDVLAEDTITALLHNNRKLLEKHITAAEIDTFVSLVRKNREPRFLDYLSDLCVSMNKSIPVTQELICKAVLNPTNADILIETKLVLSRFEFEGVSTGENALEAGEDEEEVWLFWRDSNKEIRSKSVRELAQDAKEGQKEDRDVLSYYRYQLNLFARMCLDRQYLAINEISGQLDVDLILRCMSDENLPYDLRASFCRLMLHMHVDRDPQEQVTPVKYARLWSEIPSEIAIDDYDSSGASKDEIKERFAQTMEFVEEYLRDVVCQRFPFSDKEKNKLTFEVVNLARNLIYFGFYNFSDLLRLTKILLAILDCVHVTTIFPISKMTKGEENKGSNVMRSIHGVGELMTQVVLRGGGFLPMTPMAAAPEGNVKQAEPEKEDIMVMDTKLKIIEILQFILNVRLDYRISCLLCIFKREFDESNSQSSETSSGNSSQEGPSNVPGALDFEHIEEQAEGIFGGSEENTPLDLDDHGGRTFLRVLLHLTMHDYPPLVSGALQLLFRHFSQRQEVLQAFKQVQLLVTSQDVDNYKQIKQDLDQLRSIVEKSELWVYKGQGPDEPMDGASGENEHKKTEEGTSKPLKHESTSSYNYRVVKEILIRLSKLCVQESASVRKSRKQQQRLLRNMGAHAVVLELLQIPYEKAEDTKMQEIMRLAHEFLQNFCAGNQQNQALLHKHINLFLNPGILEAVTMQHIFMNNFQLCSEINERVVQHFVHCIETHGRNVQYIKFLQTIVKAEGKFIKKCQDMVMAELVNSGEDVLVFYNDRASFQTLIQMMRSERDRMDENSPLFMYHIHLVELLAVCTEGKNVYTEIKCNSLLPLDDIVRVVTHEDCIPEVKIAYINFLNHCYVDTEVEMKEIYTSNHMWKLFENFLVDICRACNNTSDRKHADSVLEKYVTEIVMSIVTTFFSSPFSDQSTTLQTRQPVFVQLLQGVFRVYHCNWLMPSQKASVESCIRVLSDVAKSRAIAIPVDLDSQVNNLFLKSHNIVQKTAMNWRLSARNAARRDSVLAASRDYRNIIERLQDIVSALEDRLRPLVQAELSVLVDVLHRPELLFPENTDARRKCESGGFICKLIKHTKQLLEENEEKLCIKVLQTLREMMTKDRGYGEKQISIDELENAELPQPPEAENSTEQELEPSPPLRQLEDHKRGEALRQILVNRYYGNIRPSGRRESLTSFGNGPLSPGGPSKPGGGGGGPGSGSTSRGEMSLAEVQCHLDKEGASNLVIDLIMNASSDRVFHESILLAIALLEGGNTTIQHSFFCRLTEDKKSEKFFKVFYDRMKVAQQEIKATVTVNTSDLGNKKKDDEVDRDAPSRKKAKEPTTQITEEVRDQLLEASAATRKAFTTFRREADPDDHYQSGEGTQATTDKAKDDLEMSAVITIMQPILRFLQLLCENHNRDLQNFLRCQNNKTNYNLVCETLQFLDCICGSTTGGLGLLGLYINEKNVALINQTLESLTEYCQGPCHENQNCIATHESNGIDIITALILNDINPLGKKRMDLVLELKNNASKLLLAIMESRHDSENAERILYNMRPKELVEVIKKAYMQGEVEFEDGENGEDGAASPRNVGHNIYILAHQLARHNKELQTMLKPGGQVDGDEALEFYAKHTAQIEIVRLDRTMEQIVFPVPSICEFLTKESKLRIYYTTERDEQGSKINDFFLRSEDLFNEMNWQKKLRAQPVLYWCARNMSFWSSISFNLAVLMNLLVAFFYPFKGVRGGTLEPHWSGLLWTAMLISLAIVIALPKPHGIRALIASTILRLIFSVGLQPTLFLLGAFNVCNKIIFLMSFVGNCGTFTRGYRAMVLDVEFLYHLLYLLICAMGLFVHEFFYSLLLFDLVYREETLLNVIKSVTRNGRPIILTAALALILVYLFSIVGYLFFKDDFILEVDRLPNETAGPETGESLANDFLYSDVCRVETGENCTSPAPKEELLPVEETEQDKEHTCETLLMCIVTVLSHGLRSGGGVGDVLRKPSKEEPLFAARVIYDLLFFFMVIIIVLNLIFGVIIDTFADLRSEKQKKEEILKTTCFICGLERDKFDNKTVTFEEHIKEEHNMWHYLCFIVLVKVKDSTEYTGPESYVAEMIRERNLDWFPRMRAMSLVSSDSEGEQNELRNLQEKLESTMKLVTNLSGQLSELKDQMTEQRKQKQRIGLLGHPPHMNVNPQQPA
UniProt Q9R0C9: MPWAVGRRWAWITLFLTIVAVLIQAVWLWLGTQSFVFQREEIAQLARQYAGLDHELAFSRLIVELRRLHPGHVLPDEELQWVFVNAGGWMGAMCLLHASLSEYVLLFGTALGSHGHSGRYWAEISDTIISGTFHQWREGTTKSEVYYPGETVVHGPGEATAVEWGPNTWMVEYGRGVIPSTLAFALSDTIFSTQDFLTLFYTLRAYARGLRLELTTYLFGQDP
UniProt P61169: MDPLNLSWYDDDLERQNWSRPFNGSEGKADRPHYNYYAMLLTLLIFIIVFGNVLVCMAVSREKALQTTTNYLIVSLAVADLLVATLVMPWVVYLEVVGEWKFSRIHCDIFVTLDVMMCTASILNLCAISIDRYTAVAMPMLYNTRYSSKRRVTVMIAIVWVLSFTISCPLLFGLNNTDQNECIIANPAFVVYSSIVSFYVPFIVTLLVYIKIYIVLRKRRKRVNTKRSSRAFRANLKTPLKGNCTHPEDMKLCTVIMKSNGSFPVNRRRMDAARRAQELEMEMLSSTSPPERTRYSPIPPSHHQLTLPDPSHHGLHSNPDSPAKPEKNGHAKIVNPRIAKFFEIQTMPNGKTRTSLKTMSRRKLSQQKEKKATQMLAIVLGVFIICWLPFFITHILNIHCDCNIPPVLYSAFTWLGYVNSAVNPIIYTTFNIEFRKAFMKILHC

These are yes or no findings as the source states them, for the method shown. Binding seen in cells or lysates may run through a third protein. Some entries that bind do so weakly or less than the wild type.

The target of test [1] is dopamine receptor D1 (mouse or rat (endogenous in NG-108, a mouse-rat hybrid line)) (UniProt P18901). Nature of the test: condition: only cells treated with haloperidol (10 µmol/L); proximity ligation; In situ PLA (Olink) in differentiated NG-108 cells treated with haloperidol (10 µmol/L), with mouse anti-D1 and rabbit anti-D2 antibodies, 37 °C.
Test [2] shares this target. Description: proximity ligation; In situ PLA (Olink) in differentiated NG-108 cells, control and BD 1047 (10 µmol/L) treated, with mouse anti-D1 and rabbit anti-D2 antibodies, 37 °C; negative controls without one primary antibody.
Test [3] deals with type 1 inositol 1,4,5-trisphosphate receptor (mouse or rat (endogenous in NG-108, a mouse-rat hybrid line)) (UniProt P29994). Description: co-IP; Endogenous proteins from 1 mg detergent-extracted total protein of differentiated NG-108 cells (control, haloperidol 10 µmol/L or BD 1047 10 µmol/L treated); antibody to σ1R (OPRS1) or to IP3R1 on Dynabeads M-280, 4 h at 4 °C, washed with PTA (145 mmol/L NaCl, 0.5% Tween 20, pH 7.0); Western blot of the partner.

Test [4] has as its target sigma 1 receptor (mouse or rat (endogenous in NG-108, a mouse-rat hybrid line)) (UniProt Q9R0C9). Nature of the test: proximity ligation; In situ PLA (Olink) in differentiated NG-108 cells with rabbit anti-σ1R and mouse anti-IP3R1 antibodies, 37 °C; negative controls without one primary antibody.
For test [5] the target is unchanged. Description: co-IP; Endogenous proteins from 1 mg detergent-extracted total protein of differentiated NG-108 cells (control, haloperidol 10 µmol/L or BD 1047 10 µmol/L treated); antibody to σ1R (OPRS1) or to IP3R1 on Dynabeads M-280, 4 h at 4 °C, washed with PTA (145 mmol/L NaCl, 0.5% Tween 20, pH 7.0); Western blot of the partner.

On to “dopamine receptor D2 (from UniProt P61169 1-444)”, for which the binding result is reported as “no binding” in test [1] and “binds” in test [2].
Consider “sigma 1 receptor (from UniProt Q9R0C9 1-223)”, for which the binding result in test [3] is “binds”.
In the case of “type 1 inositol 1,4,5-trisphosphate receptor (from UniProt P29994 1-2750)”, the binding entry in test [4] and in test [5] was “binds” throughout.
